Laboratory results reported in US20240383974A1.
Results are given in words; binding and its absence hold for the method and conditions named. Some entries that bind do so weakly or less than the wild type.

Amino acid sequences for entries named in this document (tags omitted). A change or cut given only in a name is not applied to a line headed by its entry. Chains listed by the source or under a name are the forms on record and can include a tag or linker. Residues count along the entry.
UniProt Q9NZQ7, residues 19-290: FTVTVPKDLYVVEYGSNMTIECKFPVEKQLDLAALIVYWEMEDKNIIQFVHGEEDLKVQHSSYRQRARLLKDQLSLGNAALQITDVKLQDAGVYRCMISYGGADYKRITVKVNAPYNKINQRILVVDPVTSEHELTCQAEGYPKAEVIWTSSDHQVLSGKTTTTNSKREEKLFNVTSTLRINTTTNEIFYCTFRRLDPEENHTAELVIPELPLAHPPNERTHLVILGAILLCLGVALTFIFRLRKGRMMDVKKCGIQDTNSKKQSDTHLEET
cynomolgus monkey PD-L1 (G7PSE7, form named): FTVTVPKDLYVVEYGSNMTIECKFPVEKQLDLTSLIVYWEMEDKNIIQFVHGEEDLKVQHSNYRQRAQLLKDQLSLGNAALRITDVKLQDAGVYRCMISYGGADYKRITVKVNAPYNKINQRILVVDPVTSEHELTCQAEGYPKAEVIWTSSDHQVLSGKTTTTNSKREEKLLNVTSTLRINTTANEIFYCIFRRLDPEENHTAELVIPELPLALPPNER
UniProt Q14392, residues 20-662: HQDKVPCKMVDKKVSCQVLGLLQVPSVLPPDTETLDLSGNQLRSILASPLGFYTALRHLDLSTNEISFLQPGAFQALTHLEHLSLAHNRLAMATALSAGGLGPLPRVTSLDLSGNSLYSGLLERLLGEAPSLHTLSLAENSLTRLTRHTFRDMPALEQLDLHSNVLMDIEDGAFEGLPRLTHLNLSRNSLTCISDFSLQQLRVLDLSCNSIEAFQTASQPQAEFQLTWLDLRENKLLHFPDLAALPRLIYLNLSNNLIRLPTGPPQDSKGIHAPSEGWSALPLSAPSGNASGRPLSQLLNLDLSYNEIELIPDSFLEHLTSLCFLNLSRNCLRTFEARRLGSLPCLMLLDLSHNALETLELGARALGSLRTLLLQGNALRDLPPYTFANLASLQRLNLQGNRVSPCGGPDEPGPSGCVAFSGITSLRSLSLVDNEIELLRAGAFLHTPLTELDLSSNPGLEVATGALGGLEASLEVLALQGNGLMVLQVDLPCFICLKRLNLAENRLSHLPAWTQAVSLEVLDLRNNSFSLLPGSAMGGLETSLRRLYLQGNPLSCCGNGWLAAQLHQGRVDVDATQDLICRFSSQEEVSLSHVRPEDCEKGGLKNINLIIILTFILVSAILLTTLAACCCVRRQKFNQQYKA
UniProt P01137, residues 279-390: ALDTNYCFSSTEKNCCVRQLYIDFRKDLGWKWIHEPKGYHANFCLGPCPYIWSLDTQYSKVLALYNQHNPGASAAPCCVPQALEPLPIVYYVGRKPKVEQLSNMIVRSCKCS

Tests used:
[1] = target: human PD-L1 (human) (UniProt Q9NZQ7); assay: FACS and ELISA
[2] = target: cynomolgus monkey PD-L1 (cynomolgus monkey) (UniProt G7PSE7); assay: FACS and ELISA
[3] = target: human PD-L1 (human) (UniProt Q9NZQ7); assay: FACS on MDA-MB-231 cells (endogenous PD-L1)
[4] = target: GARP-TGF-β complex (293-GARP/TGFβ stably transfected cells) (UniProt Q14392); assay: FACS on 293-GARP/TGFβ cells
[5] = target: human transforming growth factor β1 (human) (UniProt P01137); assay: ELISA, plate-coated hTGF-β1
[6] = target: GARP (CHO-K1-GARP cell line that overexpresses GARP) (UniProt Q14392); assay: FACS on CHO-K1-GARP cells

binding [1] | binding [2] | binding [3] | binding [4] | binding [5] | binding [6] | Binder
binds | binds | binds |  |  |  | antibody A (VHH) VHH: QVQLVESGGGLVQAGGSLRLSCAASGRSFSSSGMGWFRQAPGKDREFVATINSSGGDTYYRDSVEGRFTTSRDNAKNTMSLQMNDLKPEDTAVYYCAAKEGGGPSSIPAIYDYWGQGTQVTVSS
binds | binds | binds |  |  |  | antibody E (VHH) VHH: QVQLVESGGGLVQAGGSLRLSCAASGRSFSSSGMGWFRQAPGKDREFVATINSSGGDTYYADSVEGRFTTSRDNAKNTMSLQMNDLKPEDTAVYYCAAKEGGGPSSIPAIFDYWGQGTQVTVSS
binds | binds |  |  |  |  | antibody Ahu (VHH) VHH: QVQLVESGGGVVQPGGSLRLSCAASGRSFSSSGMGWFRQAPGKGREFVATINSSGGDTYYRDSVEGRFTTSRDNSKNTMYLQMNSLRAEDTAVYYCAAKEGGGPSSIPAIYDYWGQGTLVTVSS
 |  |  | binds | binds |  | antibody m202-hu (antibody, V domains shown) VH: QVQLVQSGAEVKKPGASVKVSCKASGYTFTSYWMHWVKQAPGQGLEWIGNINPSNGDTNYNEKFKSKATLTVDKSTSTAYMELRSLRSDDTAVYYCARATYGSYGYFDVWGQGTLVTVSS VL: DIVLTQSPDSLAVSLGERATINCRASESVTIIGTNLIQWFQQKPGQPPKLLIYHASNLETGVPDRFSGSGSRTDFTLTISSLQAEDVAVYYCLQSRQIPRTFGGGTKVEIK
 |  |  | binds |  | binds | antibody m107 (antibody, V domains shown) VH: QVHLQQSGAALARPGASVKMSCKASGYTFSAYTIHWVKQRPGQGLEWIGYINPSNDFAKYIQKFKDKATLTADKSSSTAYMQLNSLTSEDSAIYYCARVDYYGGSYRWYLDVWGAGTTVTVSS VL: DIVLTQSPATLSVTPGDSVSLSCRASQSISNNLHWYQQKSHESPRLLIKYTSQSISGIPSRFSGSGSGTDFTLSINSVETEDFGMYFCQQSNSWPIFTFGSGTKLEIK
 |  |  | binds |  | binds | antibody m212-hu (antibody, V domains shown) VH: QVQLVQSGAEVKKPGSSVKVSCKASGYIFTSYWMHWVKQAPGQGLEWIGRIAPNSGGAHYHEKFKTKVTITADKSTSTAYMEFSSLRSEDTAVYYCARGNYGMDYWGQGTAVTVSS VL: DIQMTQSPSSLSASVGDRVTITCRASQDISNYLNWYQQKPGGAPELLIYYTSTLHSGVPSRFSGSGSGTDYTLTISSLQPEDFATYFCQQVNTLPFTFGSGTKLEIK
binds | binds |  |  |  |  | antibody D2hu (VHH) VHH: EVQLVESGGGLVQPGGSLRLSCAASGRDFLTYGMGWFRQAPGKGLEFVASINWSGSMTYYADSVKGRFTISRDNAKNSVYLQMNSLRAEDTAVYICAARRGAVTYASSNEYEHWGQGTQVTVSS
binds | binds | binds |  |  |  | antibody D (VHH) VHH: EVQLVESGGGLVQAGDSLRLSCTASGRDFLTYGMGWFRQAPGKEREFVASINWSGSMTYYADSVKGRFTISRDNAKNTVYLQMNSLKPGDTAVYICAARRGAVTYASSNEYEHWGQGTQVTVSS
binds | binds |  |  |  |  | antibody Chu (VHH) VHH: EVQLVESGGGLVQPGGSLRLSCAASGRDFLTYGMGWFRQAPGKGREFVASINWSGSMTYYADSVKGRFTISRDNAKNTVYLQMNSLKAEDTAVYICAARRGAVTYASSNEYEHWGQGTLVTVSS
binds | binds |  |  |  |  | antibody D1hu (VHH) VHH: EVQLVESGGGLVQPGGSLRLSCTASGRDFLTYGMGWFRQAPGKELEFVASINWSGSMTYYADSVKGRFTISRDNAKNTVYLQMNSLRAEDTAVYICAARRGAVTYASSNEYEHWGQGTQVTVSS
binds | binds | binds |  |  |  | antibody C (VHH) VHH: EVQLVESGGGSVQTGGSLRLSCVASGRDFLTYGMGWFRQAPGKEREFVASINWSGSMTYYADSVKGRFTISRDNAKNTVYLQMNSLKPGDTAVYICAARRGAVTYASSNEYEHWGQGTQVTVSS
 |  |  | binds |  | binds | antibody m305-hu (antibody, V domains shown) VH: QVQLVQSGAEVKKPGASVKVSCKTSGYTFTDYNMNWVKQAPGQGLEWIGDINPYSGGTIYNQKFKGRATLTTDTSTSTAYMELRSLRSDDTAVYYCARVSKGSGDYWGQGTLVTVSS VL: DIQMTQSPSSLSASVGDRVTITCRASQEISGYLSWLQQKPGGAPKRLIYAASTLDSGVPSRFSGSRSGTDYTLTISSLQPEDFATYYCLQYASYPTCTFGGGTKVEIK
 |  |  | binds |  | binds | antibody m305 (antibody, V domains shown) VH: EVQLQQSGPELVKPGASVKIPCKTSGYTFTDYNMNWVKQSHGKSLEWIGDINPYSGGTIYNQKFKGKAILTVDKSSSTAYMELRSLTSEDTGIYYCARVSKGSGDYWGQGTTLTVSS VL: DIQMTQSPSSLSASLGERVSLTCRASQEISGYLSWLQQKPDGTIKRLIYAASTLDSGVPKRFSGSRSGSDYSLTISSLESEDFADYYCLQYASYPTCTFGGGTKLEIK
 |  |  | binds |  | binds | antibody m212 (antibody, V domains shown) VH: QVQLQQPGPELVKPGASVKLTCKASGYIFTSYWMHWVKRGPGRGLEWIGRIAPNSGGAHYHEKFKTKVTLTVDKPSSTAYMEFSSLTSEDSAVYYCARGNYGMDYWGQGTAVTVSS VL: DIQMTQTTSSLSASLGDRVTISCRASQDISNYLNWYQQKPDGTVELLIYYTSTLHSGVPSRFSGSGSGTDYSLTISNLEQEDIATYFCQQVNTLPFTFGSGTKLEII
 |  |  | binds | binds |  | antibody m109-hu (antibody, V domains shown) VH: EVQLVESGGGLVQPGGSLRLSCATSGFTFSDYYMYWVRQTPEKRLEWVAYISNGGGRTYYPDTVKGRFTISRDNAKNSLYLQMSRLRAEDTAVYYCARQKTNYGNYEEDYYAMGYWGQGTSVTVSS VL: DIVLTQSPASLAVSLGQRATITCRASKSVSTSGYSYIHWYQQKPGQPPKLLIYLASNLESGVPARFSGSGSGTDFTLTINPVEEEDAATYYCQHSRELPLTFGAGTKLEIK
 |  |  | binds | binds |  | antibody m109 (antibody, V domains shown) VH: EVKLVESGGGLVQPGGSLKLSCATSGFTFSDYYMYWVRQTPEKRLEWVAYISNGGGRTYYPDTVKGRFTISRDNAKNTLYLQMSRLKSEDRAIYYCARQKTNYGNYEEDYYAMGYWGQGTSVTVSS VL: DIVLTQSPASLAVSLGQRATISCRASKSVSTSGYSYIHWYQQKPGQPPKLLIYLASNLESGVPARFSGSGSGTDFTLNIHPVEEEDAATYYCQHSRELPLTFGAGTKLDLK
 |  |  | binds | binds |  | antibody m301-hu (antibody, V domains shown) VH: QVQLQESGPGLVKPSGTLSLTCAVSGFSLTTYGVTWVRQPPGKGLEWIGLIWGDGTTDYHSTFISRLTISKDKSKNQVSLKLSSVTAADTAVYYCASYYFAMHYWGQGTLVTVSS VL: DIVMTQSPDSLAVSLGERATINCKSSQSLLNSRTQKNYLAWYQQKPGQSPKLLIYWASTRESGVPDRFSGSGSGTDFTLTISSLQAEDVAVYYCKQSYNLWTFGGGTKVEIK
 |  |  | binds | binds |  | antibody m202 (antibody, V domains shown) VH: QVQLQQPGTELVKPGASVKLSCKASGYTFTSYWMHWVKQRPGQGLEWIGNINPSNGDTNYNEKFKSKATLTVDKSSSTAYMQLSSLTSDDSAVYYCARATYGSYGYFDVWGTGTAVTVSS VL: DIVLTQSPASLAMSLGKRATISCRASESVTIIGTNLIQWFQQKPGQPPKLLIYHASNLETGVPARFSGSGSRTDFTLTIDPVEEDDVAIYYCLQSRQIPRTFGGGTKLEIK
 |  |  | binds | binds |  | antibody m301 (antibody, V domains shown) VH: QVQLKESGPGLVAPSQSLSITCTVSGFSLTTYGVTWVRQPPGKGLQWLGLIWGDGTTDYHSTFISRLSISKDKSKNQVFFKLNSLQTDDTATYYCASYYFAMHYWGQGTSVTVSS VL: DIVMSQSPSSLAVSAGEKVTMNCKSSQSLLNSRTQKNYLAWYQQKPGQSPKLLIYWASTRESGVPDRFTGSGSGTDFTLTIISVQAEDLAVYYCKQSYNLWTFGGGTKLEIK
 |  |  | binds | binds |  | antibody m107-hu (antibody, V domains shown) VH: QVQLVQSGAEVKRPGASVKVSCKASGYTFSAYTIHWVKQRPGQGLEWIGYINPSNDFAKYIQKFKDKVTITADKSTSTAYMELNSLRSEDTAVYYCARVDYYGGSYRWYLDVWGQGTTVTVSS VL: DIVLTQSPATLSLSPGERATLSCRASQSISNNLHWYQQKPGEAPRLLIKYTSQSISGIPARFSGSGSGTDFTLTISSLEPEDFAVYFCQQSNSWPIFTFGQGTKLEIK
binds | binds | binds |  |  |  | antibody B (VHH) VHH: QVQLVESGGGLVQPGGSLSLSCVASGFTFSSYAMRWVRQAPGKEPEWVAGINTGSEIVVYANSVRGRFAISRDNARDTLFLQMNSLKPEDTAVYYCATGLVSAEHDGIWGQGTQVTVSS
binds | binds |  |  |  |  | antibody Bhu (VHH) VHH: QVQLVESGGGVVQPGGSLRLSCAASGFTFSSYAMRWVRQAPGKGLEWVAGINTGSEIVVYANSVRGRFTISRDNSRDTLYLQMNSLRAEDTAVYYCATGLVSAEHDGIWGQGTQVTVSS
